These are yes or no findings as the source states them, for the method shown. In cells and extracts the contact can be indirect. Some entries that bind do so weakly or less than the wild type. For some assays here: Sequences can lack the tags named with a protein.
Experiments:
FLAG-MAGEC2 = molecular target: T1, FLAG-MAGEC2 (UniProt Q9UBF1); experiment: co-IP; FLAG-MAGEC2 expression vector transfected into HEK293T; IP-Western blotting of whole-cell extracts (0.4 M NaCl, 0.5% Triton-X 100 extraction buffer), antibody on Protein-G-Sepharose beads, 2-3 h at 4 °C; endogenous TRIM28 detected
T1 sequence: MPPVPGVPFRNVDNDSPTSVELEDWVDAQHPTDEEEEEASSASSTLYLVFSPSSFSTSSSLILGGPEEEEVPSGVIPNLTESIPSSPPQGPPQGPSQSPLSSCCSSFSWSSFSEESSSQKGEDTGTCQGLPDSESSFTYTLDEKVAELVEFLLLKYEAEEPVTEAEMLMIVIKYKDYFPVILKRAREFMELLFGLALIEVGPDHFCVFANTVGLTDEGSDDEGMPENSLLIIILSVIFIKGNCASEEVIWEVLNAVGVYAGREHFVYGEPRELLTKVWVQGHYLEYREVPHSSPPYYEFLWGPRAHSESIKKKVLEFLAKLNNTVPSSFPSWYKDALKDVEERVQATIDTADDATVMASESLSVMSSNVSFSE

The chains behind the UniProt entries cited, without tags or fusion partners.
UniProt P35712: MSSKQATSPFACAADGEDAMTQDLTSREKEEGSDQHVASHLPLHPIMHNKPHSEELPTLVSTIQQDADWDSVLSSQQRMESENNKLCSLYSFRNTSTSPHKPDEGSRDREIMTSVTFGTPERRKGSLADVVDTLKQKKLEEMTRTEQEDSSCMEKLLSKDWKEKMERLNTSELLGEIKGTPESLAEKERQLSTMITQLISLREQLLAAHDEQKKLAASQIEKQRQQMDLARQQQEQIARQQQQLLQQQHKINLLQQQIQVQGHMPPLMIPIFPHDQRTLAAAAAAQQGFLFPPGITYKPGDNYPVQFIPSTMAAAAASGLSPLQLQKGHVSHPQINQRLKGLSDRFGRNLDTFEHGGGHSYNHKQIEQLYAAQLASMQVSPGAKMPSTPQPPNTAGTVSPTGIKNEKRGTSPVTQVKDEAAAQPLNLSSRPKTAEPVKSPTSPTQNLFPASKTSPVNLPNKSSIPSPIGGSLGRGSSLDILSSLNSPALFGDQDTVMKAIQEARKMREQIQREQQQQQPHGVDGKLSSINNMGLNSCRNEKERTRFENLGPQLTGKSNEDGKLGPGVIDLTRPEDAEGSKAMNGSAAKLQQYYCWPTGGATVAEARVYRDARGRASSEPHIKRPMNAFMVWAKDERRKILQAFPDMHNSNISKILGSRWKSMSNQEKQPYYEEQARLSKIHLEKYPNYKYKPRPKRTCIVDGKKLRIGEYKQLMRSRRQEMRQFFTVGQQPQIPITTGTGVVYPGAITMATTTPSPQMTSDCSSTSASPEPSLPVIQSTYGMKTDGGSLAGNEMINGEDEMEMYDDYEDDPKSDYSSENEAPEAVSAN
UniProt Q13263: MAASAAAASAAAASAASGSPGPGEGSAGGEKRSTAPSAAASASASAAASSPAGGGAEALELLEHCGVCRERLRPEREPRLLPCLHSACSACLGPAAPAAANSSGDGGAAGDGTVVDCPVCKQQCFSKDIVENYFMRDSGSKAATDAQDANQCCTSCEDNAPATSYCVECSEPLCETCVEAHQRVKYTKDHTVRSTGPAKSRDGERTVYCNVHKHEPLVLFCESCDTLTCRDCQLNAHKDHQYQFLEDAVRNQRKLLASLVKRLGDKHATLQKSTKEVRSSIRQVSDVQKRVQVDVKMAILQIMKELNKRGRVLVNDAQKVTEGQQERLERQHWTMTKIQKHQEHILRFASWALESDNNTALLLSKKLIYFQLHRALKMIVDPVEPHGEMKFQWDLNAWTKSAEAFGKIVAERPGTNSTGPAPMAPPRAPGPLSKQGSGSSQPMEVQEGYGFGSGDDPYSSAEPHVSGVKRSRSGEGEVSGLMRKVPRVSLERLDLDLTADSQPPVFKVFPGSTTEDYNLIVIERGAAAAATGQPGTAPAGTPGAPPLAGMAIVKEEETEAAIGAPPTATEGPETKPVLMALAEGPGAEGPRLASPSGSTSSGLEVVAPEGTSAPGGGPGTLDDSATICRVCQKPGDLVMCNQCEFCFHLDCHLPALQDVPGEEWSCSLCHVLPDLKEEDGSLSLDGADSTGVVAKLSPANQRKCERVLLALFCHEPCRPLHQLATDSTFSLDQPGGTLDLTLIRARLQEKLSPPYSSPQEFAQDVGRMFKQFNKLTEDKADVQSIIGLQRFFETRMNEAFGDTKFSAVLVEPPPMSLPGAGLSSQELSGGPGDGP

FLAG-SOX6 = FLAG-SOX6 (UniProt P35712); experiment: co-IP; FLAG-SOX6 and HA-TRIM28 expression plasmids transfected into HEK293T; whole-cell extracts IPed with anti-FLAG, Western blotting with anti-HA and anti-FLAG

Row | binding (FLAG-MAGEC2) | binding (FLAG-SOX6) | Substance
1 | binds |  | endogenous TRIM28 (from UniProt Q13263 1-835)
2 |  | binds | HA-TRIM28 (from UniProt Q13263 1-835)
